Experimental data from US10759781B2, “Substituted guanidine derivatives” (UBE INDUSTRIES, LTD., priority 2015, dated 2020).
Some entries share one result that the patent states for a list of compounds.

Molecular target: T1, Human VAP-1 enzyme (Homo sapiens, UniProt Q16853)
T1 construct: purchased R&D Systems, Inc
T1 sequence (Q16853 1-763): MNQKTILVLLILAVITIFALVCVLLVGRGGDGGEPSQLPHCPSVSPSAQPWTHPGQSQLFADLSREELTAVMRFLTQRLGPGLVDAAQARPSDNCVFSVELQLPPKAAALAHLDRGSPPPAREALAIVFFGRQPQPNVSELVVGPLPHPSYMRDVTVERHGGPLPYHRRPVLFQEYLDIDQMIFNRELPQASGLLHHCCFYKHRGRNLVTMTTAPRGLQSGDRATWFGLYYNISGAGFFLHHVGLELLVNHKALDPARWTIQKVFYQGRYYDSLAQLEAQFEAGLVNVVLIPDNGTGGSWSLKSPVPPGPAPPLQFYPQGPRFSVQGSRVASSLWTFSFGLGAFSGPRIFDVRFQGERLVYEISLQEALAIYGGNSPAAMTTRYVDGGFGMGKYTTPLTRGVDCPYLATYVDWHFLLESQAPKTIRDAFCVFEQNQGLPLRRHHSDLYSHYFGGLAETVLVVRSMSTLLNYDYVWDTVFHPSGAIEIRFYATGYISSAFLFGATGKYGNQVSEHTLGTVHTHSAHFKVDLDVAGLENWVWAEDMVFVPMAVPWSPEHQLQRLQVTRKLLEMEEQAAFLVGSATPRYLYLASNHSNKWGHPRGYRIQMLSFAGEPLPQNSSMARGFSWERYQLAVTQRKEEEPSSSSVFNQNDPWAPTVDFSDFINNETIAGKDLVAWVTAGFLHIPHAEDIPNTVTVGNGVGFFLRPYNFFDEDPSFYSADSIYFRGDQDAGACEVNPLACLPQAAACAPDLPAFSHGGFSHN
Test: Human VAP-1 enzyme inhibition test
Assay type: biochemical
Conditions: compound 30 nM; 14C-benzylamine 100 μM
Protocol: Human VAP-1 enzyme inhibition test
This test was conducted by modifying the method of P. H. Yu et al. (Diabetologia 40 1243 (1997)). Human VAP-1 enzyme (R&D Systems, Inc.) was pre-incubated in a 96-well plate with the compound dissolved in dimethylsulfoxide at room temperature for 20 minutes. Next, in a solution to the final volume of 200 μL, the enzyme reaction solution was incubated with ^14C-benzylamine (final concentration 100 μM) at 37° C. for 1 hour. The reaction was terminated by the addition of 100 μL of 2 M citric acid solution to the reaction solution. The oxidative product was extracted using a toluene/ethyl acetate mixture and the radioactivity was measured with a liquid scintillation counter. The inhibition ratio of the compound was calculated using the following equation. Inhibition ratio={1−[VAP-1 enzyme activity after treatment with the compound]/[VAP-1 enzyme activity in the presence of dimethylsulfoxide alone without the compound]}×100

Inhibition ratio (human VAP-1 enzyme), ≥ 50%:
CON=C1CN(c2ncc(-c3cccc(COC(=O)NC(=N)N)c3F)cn2)C1 [Example 1, 2-Fluoro-3-{2-[3-(methoxyimino)azetidin-1-yl]pyrimidin-5-yl}benzyl carbamimidoylcarbamate]
CCON=C1CN(c2ncc(-c3cccc(COC(=O)NC(=N)N)c3F)cn2)C1 [Example 2, 3-{2-[3-(Ethoxyimino)azetidin-1-yl]pyrimidin-5-yl}-2-fluorobenzyl carbamimidoylcarbamate]
N=C(N)NC(=O)OCc1cccc(-c2cnc(N3CC(=NOCCF)C3)nc2)c1F [Example 5, 2-Fluoro-3-(2-{3-[(2-fluoroethoxy)imino]azetidin-1-yl}pyrimidin-5-yl)benzyl carbamimidoylcarbamate]
CON=C1CN(c2ncc(-c3cccc(COC(=O)NC(=N)N)c3F)cn2)C1.O=C(O)/C=C\C(=O)O [Example 186, 2-Fluoro-3-{2-[3-(methoxyimino)azetidin-1-yl]pyrimidin-5-yl}benzyl carbamimidoylcarbamate maleate]
CON=C1CN(c2ncc(-c3cccc(COC(=O)NC(=N)N)c3F)cn2)C1.O=C(O)CCC(=O)O [Example 187, 2-Fluoro-3-{2-[3-(methoxyimino)azetidin-1-yl]pyrimidin-5-yl}benzyl carbamimidoylcarbamate 1/2 succinate]
CCON=C1CN(c2ncc(-c3cccc(COC(=O)NC(=N)N)c3F)cn2)C1.O=C(O)/C=C\C(=O)O [Example 190, 3-{2-[3-(Ethoxyimino)azetidin-1-yl]pyrimidin-5-yl}-2-fluorobenzyl carbamimidoylcarbamate maleate]
CCON=C1CN(c2ncc(-c3cccc(COC(=O)NC(=N)N)c3F)cn2)C1.O=C(O)CCC(=O)O [Example 191, 3-{2-[3-(Ethoxyimino)azetidin-1-yl]pyrimidin-5-yl}-2-fluorobenzyl carbamimidoylcarbamate 1/2 succinate]
N=C(N)NC(=O)OCc1cccc(-c2cnc(N3CC(=NOCCF)C3)nc2)c1F.O=C(O)/C=C\C(=O)O [Example 198, 2-Fluoro-3-(2-{3-[(2-fluoroethoxy)imino]azetidin-1-yl}pyrimidin-5-yl)benzyl carbamimidoylcarbamate maleate]
N=C(N)NC(=O)OCc1cccc(-c2cnc(N3CC(=NOCCF)C3)nc2)c1F.O=C(O)CCC(=O)O [Example 199, 2-Fluoro-3-(2-{3-[(2-fluoroethoxy)imino]azetidin-1-yl}pyrimidin-5-yl)benzyl carbamimidoylcarbamate 1/2 succinate]
CON=C1CN(c2ncc(-c3cccc(COC(=O)NC(=N)N)c3F)cc2F)C1.O=C(O)C(O)C(O)C(=O)O [Example 200, 2-Fluoro-3-{5-fluoro-6-[3-(methoxyimino)azetidin-1-yl]pyridin-3-yl}benzyl carbamimidoylcarbamate 1/2 L-tartrate]
CON=C1CN(c2ncc(-c3cccc(COC(=O)NC(=N)N)c3F)cc2F)C1.O=C(O)/C=C\C(=O)O [Example 202, 2-Fluoro-3-{5-fluoro-6-[3-(methoxyimino)azetidin-1-yl]pyridin-3-yl}benzyl carbamimidoylcarbamate maleate]
CON=C1CN(c2ncc(-c3cccc(COC(=O)NC(=N)N)c3F)cc2F)C1.O=C(O)CCC(=O)O [Example 203, 2-Fluoro-3-{5-fluoro-6-[3-(methoxyimino)azetidin-1-yl]pyridin-3-yl}benzyl carbamimidoylcarbamate 1/2 succinate]
